Measured values from patent publication US8691943B2, “Antimicrobial activity of chicken NK-2 peptide against apicomplexan protozoa” (priority 2011, dated 2014).

Test system: E. coli strain BMH71-18
Assay: Bactericidal activity, broth microdilution assay (OD600)
Format: cell-based
Details: Escherichia coli, BMH7118; positive control, 18 h
Method: Ampicillin (0-20 μg/ml), chicken NK-lysin peptides (0-40 μg/ml), or LB broth alone were added to cultures of the bacteria and incubated for 18 h at […]. Bacterial growth was determined by measuring OD600. X axis: Ampicillin concentrations.
To evaluate the bactericidal activity of NK-lysin peptides, the minimum inhibitory concentration (MIC) values of the purified recombinant protein against E. coil strain BMH71-18 were determined using a standardized broth microdilution assay. Ampicillin MIC values against the bacteria were determined in parallel as positive controls. The assays were performed in accordance with Clinical and Laboratory Standards Institute (CLSI; Formerly National Committee for Clinical Laboratory Standards [NCCLS]) guidelines (NCCLS. 1999. In: Methods for Determining Bacterial Activity of Antimicrobial Agents, NCCLC, Wayne, Pa.; NCCLS. 2002. In: Performance Standards for Antimicrobial Disk and Dilution Susceptibility Tests for Bacteria isolated from Animals; Approved Standard, 2nd ed. NCCLS, Wayne, Pa.). […] The wells were incubated for 18 h at 37° C. with ambient air circulation and without shaking, and the optical density (OD) of each well was measured on a Synergy HT™ multi-modal plate reader (Bio-Tec Instruments, Winooski, Vt.) at 600 nm. Background values, derived from non-inoculated wells containing broth alone, were subtracted from all readings.

CC1(C)S[C@@H]2[C@H](NC(=O)[C@H](N)c3ccccc3)C(=O)N2[C@H]1C(=O)O [ampicillin, reference compound]
MIC: 5 to 10 µg/mL
